Experimental data: PubChem BioAssay AID330 (DTP/NCI, 2004)
The list shows only some results of the screen, not a fair sample: it gathers tests that were run many times, whatever their T/C, doses with no T/C, and many T/C values between a quarter and a half above the control. Further doses and runs are listed elsewhere. T/C is the treated group as % of the vehicle group. Some doses have a count of surviving animals in place of a T/C: the source files T/C as zero there, which appears to mark a toxic dose or a test without result, not a measured value. Some survivor counts are full or nearly so, which does not show that the dose was tolerated: survival well below the control is almost never listed, so the zero probably covers shortened survival too. Counts of survivors are from the toxicity check (mostly the fifth day) where no day follows; animals may have died later. Schedule codes are those of the source, taken here to give the interval after Q, in days (D) or hours (H), and the number of doses after X. Some molecules as drawn cover several salts, stereoisomers or complexes of the source; a dose is that of the sample tested. Some entries were tested several times; the values are given in rising order. Marks such as (2×) count equal records among those shown. For survival time, this PubChem deposit counts one and a half times the control or more as active, and values a quarter to a half above the control carry no call in these data; other NCI protocols may use other cut-offs. Some T/C values are followed by the survivors on the day toxicity was checked, most often the fifth; where none is given, no animal had died by that day.

Tested on: P388 leukemia ip, CD2F1 mice, survival T/C
Assay: NCI In Vivo Anticancer Drug Screen. Data for tumor model P388 Leukemia (intraperitoneal) in CD2F1 (CDF1) mice
Conditions: T/C endpoint: median survival time, higher T/C = longer survival
[1] = dose: 0.35 mg/kg/injection, schedule: Q01DX009 (ip), vehicle: water
[2] = dose: 0.4 mg/kg/injection, schedule: Q01DX009 (ip), vehicle: water
[3] = dose: 0.65 mg/kg/injection, schedule: Q01DX009 (ip), vehicle: water
[4] = dose: 1.0 mg/kg/injection, schedule: Q01DX005 (ip), vehicle: saline
[5] = dose: 1.0 mg/kg/injection, schedule: Q01DX009 (ip), vehicle: water

Which results are given for `CO[C@H](C(=O)[C@@H](O)[C@@H](C)O)[C@@H]1Cc2cc3cc(OC4CC(OC5CC(O)C(O)C(C)O5)C(O)C(C)O4)c(C)c(O)c3c(O)c2C(=O)[C@H]1OC1CC(OC2CC(OC3CC(C)(O)C(O)C(C)O3)C(O)C(C)O2)C(O)C(C)O1` (stereo partly drawn)?
survivor count (dose: 0.02 mg/kg/injection, schedule: Q01DX009 (ip), vehicle: saline): 10 of 10; survivor count (dose: 0.03 mg/kg/injection, schedule: Q01DX009 (ip), vehicle: saline): 10 of 10; T/C (dose: 0.1 mg/kg/injection, schedule: Q01DX010 (ip), vehicle: water): 109 (4×), 110 [5 of 6 alive], 115, 116, 120, 127 % of control; T/C (dose: 0.1 mg/kg/injection, schedule: Q01DX015 (ip), vehicle: water): 130 % of control; T/C (dose: 0.13 mg/kg/injection, schedule: Q01DX005 (ip), vehicle: saline): 126 % of control; T/C (dose: 0.13 mg/kg/injection, schedule: Q01DX009 (ip), vehicle: saline, evaluated on day 30): 90 and 115 % of control; T/C (dose: 0.13 mg/kg/injection, schedule: Q01DX009 (ip), vehicle: saline, evaluated on day 35): 136 % of control; T/C (dose: 0.13 mg/kg/injection, schedule: Q01DX009 (ip), vehicle: saline, evaluated on day 60): 100 and 108 % of control; T/C (dose: 0.2 mg/kg/injection, schedule: Q01DX009 (ip), vehicle: water, evaluated on day 28): 132 % of control; T/C (dose: 0.2 mg/kg/injection, schedule: Q01DX009 (ip), vehicle: water, evaluated on day 99): 118, 130, 130 [8 of 10 alive], 130 % of control [9 of 10 alive]; T/C (dose: 0.2 mg/kg/injection, schedule: Q01DX010 (ip), vehicle: water): 109 (2×), 116, 118 (2×), 120, 120 [5 of 6 alive], 127 [5 of 6 alive], 130 % of control; T/C (dose: 0.2 mg/kg/injection, schedule: Q01DX015 (ip), vehicle: water): 130 % of control; T/C (dose: 0.22 mg/kg/injection, schedule: Q01DX005 (ip), vehicle: saline): 126 % of control; T/C (dose: 0.25 mg/kg/injection, schedule: Q01DX005 (ip), vehicle: saline): 139 % of control; T/C (dose: 0.25 mg/kg/injection, schedule: Q01DX009 (ip), vehicle: saline, evaluated on day 30): 95 and 115 % of control; T/C (dose: 0.25 mg/kg/injection, schedule: Q01DX009 (ip), vehicle: saline, evaluated on day 35): 145 % of control; T/C (dose: 0.25 mg/kg/injection, schedule: Q01DX009 (ip), vehicle: saline, evaluated on day 60): 100 and 112 % of control; T/C (dose: 0.25 mg/kg/injection, schedule: Q01DX009 (ip), vehicle: water): 112, 114, 115, 123, 125 % of control; survivor count (dose: 0.25 mg/kg/injection, schedule: Q01DX009 (sc), vehicle: saline): 9 of 10; survivor count (dose: 0.25 mg/kg/injection, schedule: Q01DX010 (ip), vehicle: saline): 7 of 7; T/C (dose: 0.25 mg/kg/injection, schedule: Q03HX016 (ip), vehicle: saline): 127 % of control; T/C (dose: 0.3 mg/kg/injection, schedule: Q01DX010 (ip), vehicle: water): 109, 116, 118 (2×), 118 [5 of 6 alive], 120, 130 (2×), 136 % of control; T/C (dose: 0.3 mg/kg/injection, schedule: Q01DX015 (ip), vehicle: water): 125 % of control; T/C [1]: 127, 127 [9 of 10 alive], 130 % of control [9 of 10 alive] (2×); survivor count [1]: 6 of 10 and 7 of 9; T/C (dose: 0.36 mg/kg/injection, schedule: Q01DX005 (ip), vehicle: saline): 132 % of control; T/C (dose: 0.4 mg/kg/injection, schedule: Q01DX009 (ip), vehicle: other, evaluated on day 5): 131 % of control; T/C (dose: 0.4 mg/kg/injection, schedule: Q01DX009 (ip), vehicle: other, evaluated on day 23): 131 % of control; T/C [2]: 144 % of control; survivor count [2]: 8 of 8; T/C (dose: 0.4 mg/kg/injection, schedule: Q01DX010 (ip), vehicle: water): 109, 112, 118 (2×), 120, 127, 136, 140 % of control (2×); T/C (dose: 0.4 mg/kg/injection, schedule: Q01DX015 (ip), vehicle: water): 130 % of control; survivor count (dose: 0.5 mg/kg/injection, schedule: Q01DX001 (sc), vehicle: saline): 1 of 10; T/C (dose: 0.5 mg/kg/injection, schedule: Q01DX009 (ip), vehicle: clinical formulation): 131 % of control [5 of 6 alive]; T/C (dose: 0.5 mg/kg/injection, schedule: Q01DX009 (ip), vehicle: other, evaluated on day 5): 127 % of control; T/C (dose: 0.5 mg/kg/injection, schedule: Q01DX009 (ip), vehicle: other, evaluated on day 23): 127 % of control; T/C (dose: 0.5 mg/kg/injection, schedule: Q01DX009 (ip), vehicle: water, evaluated on day 28): 144 % of control; T/C (dose: 0.5 mg/kg/injection, schedule: Q01DX009 (ip), vehicle: water, evaluated on day 30): 109, 125, 125 [4 of 6 alive], 126, 149 % of control; T/C (dose: 0.5 mg/kg/injection, schedule: Q01DX009 (ip), vehicle: water, evaluated on day 99): 136 % of control [8 of 10 alive]; survivor count (dose: 0.5 mg/kg/injection, schedule: Q01DX009 (ip), vehicle: water): 5 of 10 (2×) and 6 of 10; survivor count (dose: 0.5 mg/kg/injection, schedule: Q01DX009 (sc), vehicle: saline): 1 of 10; T/C (dose: 0.5 mg/kg/injection, schedule: Q01DX010 (ip), vehicle: saline): 125 % of control; T/C (dose: 0.5 mg/kg/injection, schedule: Q01DX010 (ip), vehicle: water): 109, 120, 135, 136, 136 % of control [5 of 6 alive] (2×); T/C (dose: 0.5 mg/kg/injection, schedule: Q03HX016 (ip), vehicle: saline): 127 % of control; T/C (dose: 0.5 mg/kg/injection, schedule: Q04DX003 (ip), vehicle: saline): 127 % of control; T/C (dose: 0.5 mg/kg/injection, schedule: Q04DX024 (ip), vehicle: saline): 129 % of control; T/C (dose: 0.6 mg/kg/injection, schedule: Q01DX005 (ip), vehicle: saline): 130 % of control; T/C (dose: 0.6 mg/kg/injection, schedule: Q01DX009 (ip), vehicle: other, evaluated on day 5): 131 % of control; T/C (dose: 0.6 mg/kg/injection, schedule: Q01DX009 (ip), vehicle: other, evaluated on day 23): 131 % of control [6 of 8 alive]; survivor count (dose: 0.6 mg/kg/injection, schedule: Q01DX009 (ip), vehicle: water): 8 of 8; T/C [3]: 136 % of control [8 of 10 alive]; survivor count [3]: 1 of 10 (2×), 2 of 10, 4 of 10; T/C (dose: 0.7 mg/kg/injection, schedule: Q01DX009 (ip), vehicle: water): 141 % of control; survivor count (dose: 0.8 mg/kg/injection, schedule: Q01DX009 (ip), vehicle: other): 5 of 8; survivor count (dose: 0.8 mg/kg/injection, schedule: Q01DX009 (ip), vehicle: water): 0 of 10 (2×), 3 of 10, 7 of 10, 7 of 8; survivor count (dose: 1.0 mg/kg/injection, schedule: Q01DX001 (sc), vehicle: saline): 0 of 10; survivor count (dose: 1.0 mg/kg/injection, schedule: Q01DX005 (ip), vehicle: clinical formulation): 5 of 8; T/C [4]: 147 % of control [7 of 8 alive]; survivor count [4]: 4 of 10; T/C (dose: 1.0 mg/kg/injection, schedule: Q01DX005 (ip), vehicle: water): 126 % of control; survivor count (dose: 1.0 mg/kg/injection, schedule: Q01DX009 (ip), vehicle: clinical formulation): 2 of 6 and 4 of 6; survivor count (dose: 1.0 mg/kg/injection, schedule: Q01DX009 (ip), vehicle: saline): 4 of 10 and 8 of 10; T/C [5]: 149 % of control [4 of 6 alive]; survivor count [5]: 3 of 6, 4 of 6, 5 of 6; survivor count (dose: 1.0 mg/kg/injection, schedule: Q01DX009 (sc), vehicle: saline): 1 of 10; survivor count (dose: 1.0 mg/kg/injection, schedule: Q01DX010 (ip), vehicle: saline): 6 of 7; T/C (dose: 1.0 mg/kg/injection, schedule: Q03HX016 (ip), vehicle: saline): 145 % of control; survivor count (dose: 1.0 mg/kg/injection, schedule: Q04DX024 (ip), vehicle: saline): 10 of 10; survivor count (dose: 1.67 mg/kg/injection, schedule: Q01DX005 (ip), vehicle: clinical formulation): 2 of 8; survivor count (dose: 2.0 mg/kg/injection, schedule: Q01DX001 (ip), vehicle: saline): 2 of 10; survivor count (dose: 2.0 mg/kg/injection, schedule: Q01DX001 (sc), vehicle: saline): 1 of 10; survivor count (dose: 2.0 mg/kg/injection, schedule: Q01DX005 (ip), vehicle: water): 0 of 5; survivor count (dose: 2.0 mg/kg/injection, schedule: Q01DX009 (ip), vehicle: clinical formulation): 0 of 6 and 1 of 6; survivor count (dose: 2.0 mg/kg/injection, schedule: Q01DX009 (ip), vehicle: saline): 3 of 6; survivor count (dose: 2.0 mg/kg/injection, schedule: Q01DX009 (ip), vehicle: water): 0 of 6, 1 of 6, 2 of 6, 3 of 6; survivor count (dose: 2.0 mg/kg/injection, schedule: Q01DX009 (sc), vehicle: saline): 0 of 10; survivor count (dose: 2.0 mg/kg/injection, schedule: Q01DX010 (ip), vehicle: saline): 0 of 7; survivor count (dose: 2.0 mg/kg/injection, schedule: Q03HX008 (ip), vehicle: saline): 3 of 10; survivor count (dose: 2.0 mg/kg/injection, schedule: Q03HX016 (ip), vehicle: saline): 7 of 10; survivor count (dose: 2.0 mg/kg/injection, schedule: Q04DX003 (ip), vehicle: saline): 2 of 10; survivor count (dose: 2.0 mg/kg/injection, schedule: Q04DX024 (ip), vehicle: saline): 1 of 10; survivor count (dose: 2.0 mg/kg/injection, schedule: Q08DX002 (ip), vehicle: saline): 3 of 10; survivor count (dose: 4.0 mg/kg/injection, schedule: Q01DX001 (sc), vehicle: saline): 1 of 10
